Laboratory results as given in paper PMC9584626.
Changes are numbered by the printed parent chain. Read-outs that look alike come from different tables or passages of the source. These are yes or no findings as the source states them, for the method shown. In cells and extracts the contact can be indirect. For some of these results: Binding calls can cover weak binding; strength is not graded here. For some of these results: Sequences can lack the tags named with a protein.

Sequences of proteins named here, by UniProt entry; tags and fusion partners are left off. A change or cut given only in a name is not applied to a line headed by its entry. Residues count along the entry.
UniProt Q9LXL1: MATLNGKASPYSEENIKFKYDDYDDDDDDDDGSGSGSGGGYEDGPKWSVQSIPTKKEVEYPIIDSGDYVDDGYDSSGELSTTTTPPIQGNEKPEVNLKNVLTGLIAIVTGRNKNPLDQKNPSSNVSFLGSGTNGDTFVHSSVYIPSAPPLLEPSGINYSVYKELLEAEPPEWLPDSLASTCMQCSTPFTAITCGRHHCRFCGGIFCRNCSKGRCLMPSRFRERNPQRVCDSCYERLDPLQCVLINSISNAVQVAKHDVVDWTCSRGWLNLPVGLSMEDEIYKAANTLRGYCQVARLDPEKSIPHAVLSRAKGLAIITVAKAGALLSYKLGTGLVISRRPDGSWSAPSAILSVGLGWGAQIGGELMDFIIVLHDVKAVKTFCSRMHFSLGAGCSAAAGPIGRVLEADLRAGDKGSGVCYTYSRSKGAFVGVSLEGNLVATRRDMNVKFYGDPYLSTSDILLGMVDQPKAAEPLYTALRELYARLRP
UniProt Q8S926, residues 1-118: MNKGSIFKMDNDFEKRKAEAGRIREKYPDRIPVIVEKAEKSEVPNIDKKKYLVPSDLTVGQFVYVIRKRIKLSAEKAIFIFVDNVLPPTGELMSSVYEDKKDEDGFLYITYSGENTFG
UniProt Q9XEB5, residues 1-117: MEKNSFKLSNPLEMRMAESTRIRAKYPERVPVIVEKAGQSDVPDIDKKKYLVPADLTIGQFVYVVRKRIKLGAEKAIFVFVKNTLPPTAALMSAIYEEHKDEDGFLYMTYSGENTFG
UniProt Q9LHG8: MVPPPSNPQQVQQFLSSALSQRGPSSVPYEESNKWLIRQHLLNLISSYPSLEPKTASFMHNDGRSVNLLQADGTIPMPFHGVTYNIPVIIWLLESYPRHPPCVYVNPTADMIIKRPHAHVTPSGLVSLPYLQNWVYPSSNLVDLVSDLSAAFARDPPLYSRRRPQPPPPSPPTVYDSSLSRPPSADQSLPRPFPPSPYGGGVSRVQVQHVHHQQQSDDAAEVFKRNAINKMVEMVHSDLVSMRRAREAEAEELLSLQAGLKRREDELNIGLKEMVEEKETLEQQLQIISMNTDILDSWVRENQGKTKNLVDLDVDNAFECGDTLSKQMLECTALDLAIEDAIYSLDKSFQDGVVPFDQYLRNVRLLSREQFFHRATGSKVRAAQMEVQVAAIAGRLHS

Columns and labels:
[1] = target: mCherry-CFS1 (cell death related endosomal FYVE/SYLF protein 1) (Arabidopsis thaliana) (UniProt Q9LXL1); assay: co-IP; RFP-Trap magnetic agarose beads, 1 h, lysates of 7-d-old seedlings co-expressing the proteins, EDTA-free buffer; seedlings in control or nitrogen-deficient 1/2 MS media for 12 h; blots with anti-GFP and anti-RFP
[2] = target: T1, GST-ATG8A (Arabidopsis thaliana) (UniProt Q8LEM4); assay: pull-down; GST pull-down coupled with peptide competition: as a2, AIM peptide or AIM mutant peptide added to a final concentration of 200 uM
T1 sequence: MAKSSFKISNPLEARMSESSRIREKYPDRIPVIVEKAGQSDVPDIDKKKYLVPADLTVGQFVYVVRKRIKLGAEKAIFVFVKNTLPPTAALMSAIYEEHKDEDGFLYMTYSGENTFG

[3] = target: T2, GST-ATG8H (Arabidopsis thaliana) (UniProt Q8S925); assay: pull-down; GST pull-down: 100 ul E. coli lysate with the GST bait mixed with 400 ul plant lysate, glutathione magnetic agarose beads, 1 h at 4°C, EDTA-free buffer (25 mM Tris/HCl pH 7.5, 150 mM NaCl, 0.1% Nonidet P-40/Igepal, 10 uM ZnCl2); blots with anti-GST and anti-RFP
T2 sequence: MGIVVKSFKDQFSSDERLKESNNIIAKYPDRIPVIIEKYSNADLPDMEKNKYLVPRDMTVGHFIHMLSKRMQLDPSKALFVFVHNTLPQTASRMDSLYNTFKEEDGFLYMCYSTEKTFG

[4] = target: T3, GST-ATG8C (Arabidopsis thaliana) (UniProt Q8S927); assay: as above
T3 sequence: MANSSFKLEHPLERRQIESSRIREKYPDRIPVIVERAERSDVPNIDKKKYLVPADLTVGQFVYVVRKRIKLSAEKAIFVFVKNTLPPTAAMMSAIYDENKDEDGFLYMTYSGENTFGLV

[5] = target: T4, GST-ATG8I (Arabidopsis thaliana) (UniProt Q9LRP7); assay: as above
T4 sequence: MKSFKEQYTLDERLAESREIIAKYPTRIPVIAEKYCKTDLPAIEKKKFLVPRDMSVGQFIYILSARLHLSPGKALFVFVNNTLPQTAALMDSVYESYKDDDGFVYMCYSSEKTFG

[6] = target: T5, GST-ATG8F (Arabidopsis thaliana) (UniProt Q8VYK7); assay: as above
T5 sequence: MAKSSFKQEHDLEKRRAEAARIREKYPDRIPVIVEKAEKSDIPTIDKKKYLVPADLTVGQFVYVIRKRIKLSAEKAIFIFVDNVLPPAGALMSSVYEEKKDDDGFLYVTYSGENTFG

[7] = target: GST-ATG8E (Arabidopsis thaliana) (UniProt Q8S926); assay: as above
[8] = target: T6, GST-ATG8G (Arabidopsis thaliana) (UniProt Q9LZZ9); assay: as above
T6 sequence: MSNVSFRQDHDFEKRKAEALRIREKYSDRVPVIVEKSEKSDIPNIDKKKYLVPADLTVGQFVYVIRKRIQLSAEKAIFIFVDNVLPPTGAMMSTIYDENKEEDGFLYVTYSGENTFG

[9] = target: T7, GST-ATG8A^ADS (Arabidopsis thaliana) (UniProt Q8LEM4); assay: as above
T7 sequence: T1 sequence with Y50A, L51A

[10] = target: T1, GST-ATG8A (Arabidopsis thaliana); assay: as above
[11] = target: T8, GST-ATG8D (Arabidopsis thaliana) (UniProt Q9SL04); assay: as above
T8 sequence: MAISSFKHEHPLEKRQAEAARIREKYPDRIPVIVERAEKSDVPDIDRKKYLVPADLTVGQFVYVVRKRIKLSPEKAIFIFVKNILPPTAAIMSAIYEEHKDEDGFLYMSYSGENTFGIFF

[12] = target: T9, GST-ATG8B (Arabidopsis thaliana) (UniProt Q9XEB5); assay: as above
T9 sequence: T1 sequence with A2E, S4N, I8L, A14M, S17A, S20T, E24A, D28E, I30V, V58I

[13] = target: mCherry-CFS1 (cell death related endosomal FYVE/SYLF protein 1) (Arabidopsis thaliana) (UniProt Q9LXL1); assay: co-IP; RFP-Trap magnetic agarose beads, 1 h, lysates of 7-d-old seedlings co-expressing the proteins, EDTA-free buffer; seedlings in control or nitrogen-deficient 1/2 MS media for 12 h; blots with anti-GFP and anti-RFP; remark: listed apart in the source

In the case of “VPS23A-mTurquoise2 (from UniProt Q9LHG8)”, the binding [1] is reported as “binds”.

With “mCherry-CFS1 (cell death related endosomal FYVE/SYLF protein 1) (from UniProt Q9LXL1)” the binding [2] was “binds”, the binding [3] was “no binding” and the binding [4] was “binds”. For the same molecule, the binding [5] was “no binding”, the binding [6] was “binds” and the binding [7] was “binds”. The binding [8] was “no binding”, the binding [9] was “no binding” and the binding [10] was “binds”. The binding [11] was “binds” and the binding [12] was “binds”.

B1: GFP-ATG8A (protein, UniProt Q8LEM4 1-117)
chain: T1 sequence
B1 was tested, and the binding [13] was “binds”.
